According to patent US20140094424A1, “MICROBICIDAL COMPOSITIONS AND METHODS OF PRODUCTION USE THEREOF” (priority 2011, published 2014):

Tests used:
Assay in all cases: MBC (minimum bactericidal concentration) test in Wash NEXT reagent
Assay type in all cases: cell-based
[1] = tested on: Penicillium notatum-KMO (R); design: key: number = actual colony count; + full mat, − no growth
Procedure: (§1) The stock organisms were thawed and subbed prior to beginning the MBC test. Molds were subbed to SDA plates one week before, and the bacteria were subbed to TAT agar plates 24 hours prior to the start of the test. All plates were incubated at 32 degrees C.
(§2) For the molds, each organism was inoculated into 40 ml sterile saline in a centrifuge tube to create a density of MacFarland #5. Two serial dilutions of 1:100 were then made, resulting in 10^−2 and 10^−4 concentrations. Each dilution was vortexed before it was sampled, and sterile Eppendorf pipette tips were used to make each transfer. The 10^−4 dilution was spiral plated to yield the initial inoculum concentration.
(§3) MBC trays were set up with the prepared test reagent. Using a Matrix pipettor, 100 μl aliquots of reagent were distributed into the wells, diluting the amount of preservative from 100% to 10% increments, using unpreserved reagent as the diluent. In one row, 100% non-preserved reagent acted as a positive control and served as a benchmark for a full mat of growth. […]
(§4) Below are tables that contain the data obtained in Example 1. The MBC test is scored by (+) indicating a full grown mat of organisms, equivalent to the organisms in the unpreserved reagent. (+/−) indicates there is some kill evident disturbing that mat or bringing the quantities down to an almost countable level. […]

Pseudomonas putida (K) = conditions: 50% preservative, 48 hour
Procedure: as §1
Each bacterial organism was inoculated into 40 ml sterile saline in a centrifuge tube to create a density of MacFarland #1. Two serial dilutions of 1:100 were then made, resulting in 10^−2 and 10^−4 concentrations. Each dilution was vortexed before it was sampled, and sterile Eppendorf pipette tips were used to make each transfer. The 10^−4 dilution was spiral plated to yield the initial inoculum concentration.
as §3, §4

[2] = tested on: Aspergillus glaucus- DMO (Q)
Procedure: as §1, §2
MBC trays were set up with the prepared test reagent. Using a Matrix pipettor, 100 μl aliquots of reagent were distributed into the wells, diluting the amount of preservative from 100% to 10% increments, using unpreserved reagent as the diluent. In one row, 100% non-preserved reagent acted as a positive control and served as a benchmark for a full mat of growth. In well #12H, 100 μl unpreserved reagent was pipetted, and this well was not inoculated with organisms, as it served as the negative control. Once all of the trays were prepared, the prepared bacteria/mold suspensions were poured into the MBC inoculating trays. These were placed onto the reagent trays, and 0.01 ml inoculum was introduced into the 100 μl of reagent in each well.
This was done by dipping a sterile cotton swab into each well, and absorbing all of the liquid in the well. The swab was rolled onto a TAT agar plate ensuring that the entire swab touches the agar. Plates ware incubated at 32 degrees C. for 48 hours to 7 days, depending on the organism. Observations for growth were performed by a scoring matrix using + for a full mat, +/− for some growth, a numerical value for an actual colony count, and—for no growth.
Below are tables that contain the data obtained in Example 1. The MBC test is scored by (+) indicating a full grown mat of organisms, equivalent to the organisms in the unpreserved reagent. (+/−) indicates there is some kill evident disturbing that mat or bringing the quantities down to an almost countable level. An actual number is the actual number of colonies growing at that concentration of preservative. (−) indicates no growth found. The MBC trays were stored at room temperature for the entire test.
The materials and methods and analysis of the MBC test were the same as in Example 1.

Structure (SMILES): Cc1cc(NS(=O)(=O)c2ccc(N)cc2)no1 [Sulfamethoxazole, sulfamethoxazole]
- MBC test growth score ([1]; 60% preservative, 14 day): 14
- MBC test growth score ([1]; 80% preservative, 72 hour): 14
- MBC test growth score (Pseudomonas putida (K)): 16
- MBC test growth score ([2]; 10% preservative, 8 hour): +
- MBC test growth score ([2]; 10% preservative, 24 hour): +
- MBC test growth score ([2]; 10% preservative, 48 hour): +/−
- MBC test growth score ([2]; 10% preservative, 72 hour): +/−
- MBC test growth score ([2]; 10% preservative, 7 day): +/−
- MBC test growth score ([2]; 10% preservative, 14 day): +/−
- MBC test growth score ([2]; 20% preservative, 8 hour): +
- MBC test growth score ([2]; 20% preservative, 24 hour): +
- MBC test growth score ([2]; 20% preservative, 48 hour): +/−
- MBC test growth score ([2]; 20% preservative, 72 hour): +/−
- MBC test growth score ([2]; 20% preservative, 7 day): +/−
- MBC test growth score ([2]; 20% preservative, 14 day): +/−
- MBC test growth score ([2]; 30% preservative, 8 hour): +
- MBC test growth score ([2]; 30% preservative, 24 hour): +
- MBC test growth score ([2]; 30% preservative, 48 hour): +/−
- MBC test growth score ([2]; 30% preservative, 72 hour): +/−
- MBC test growth score ([2]; 30% preservative, 7 day): +/−
- MBC test growth score ([2]; 30% preservative, 14 day): +/−
- MBC test growth score ([2]; 40% preservative, 8 hour): +
- MBC test growth score ([2]; 40% preservative, 24 hour): +
- MBC test growth score ([2]; 40% preservative, 48 hour): +/−
- MBC test growth score ([2]; 40% preservative, 72 hour): +/−
- MBC test growth score ([2]; 40% preservative, 7 day): 16
- MBC test growth score ([2]; 40% preservative, 14 day): 12
- MBC test growth score ([2]; 50% preservative, 8 hour): +
- MBC test growth score ([2]; 50% preservative, 24 hour): +
- MBC test growth score ([2]; 50% preservative, 48 hour): +/−
- MBC test growth score ([2]; 50% preservative, 72 hour): +/−
- MBC test growth score ([2]; 50% preservative, 7 day): 14
- MBC test growth score ([2]; 50% preservative, 14 day): 11
- MBC test growth score ([2]; 60% preservative, 8 hour): +
- MBC test growth score ([2]; 60% preservative, 24 hour): +
- MBC test growth score ([2]; 60% preservative, 48 hour): +/−
- MBC test growth score ([2]; 60% preservative, 72 hour): +/−
- MBC test growth score ([2]; 60% preservative, 7 day): 12
- MBC test growth score ([2]; 60% preservative, 14 day): 10
- MBC test growth score ([2]; 70% preservative, 8 hour): +
- MBC test growth score ([2]; 70% preservative, 24 hour): +
- MBC test growth score ([2]; 70% preservative, 48 hour): +/−
- MBC test growth score ([2]; 70% preservative, 72 hour): 23
- MBC test growth score ([2]; 70% preservative, 7 day): 8
- MBC test growth score ([2]; 70% preservative, 14 day): 9
- MBC test growth score ([2]; 80% preservative, 8 hour): +
- MBC test growth score ([2]; 80% preservative, 24 hour): +
- MBC test growth score ([2]; 80% preservative, 48 hour): +/−
- MBC test growth score ([2]; 80% preservative, 72 hour): 20
- MBC test growth score ([2]; 80% preservative, 7 day): 7
- MBC test growth score ([2]; 80% preservative, 14 day): 6
- MBC test growth score ([2]; 90% preservative, 8 hour): +
- MBC test growth score ([2]; 90% preservative, 24 hour): +
- MBC test growth score ([2]; 90% preservative, 48 hour): +/−
- MBC test growth score ([2]; 90% preservative, 72 hour): 16
- MBC test growth score ([2]; 90% preservative, 7 day): 6
- MBC test growth score ([2]; 100% preservative, 8 hour): +
- MBC test growth score ([2]; 100% preservative, 24 hour): +
- MBC test growth score ([2]; 100% preservative, 48 hour): +/−
- MBC test growth score ([2]; 100% preservative, 72 hour): 12
- MBC test growth score ([2]; 100% preservative, 7 day): 3
- MBC test growth score ([2]; 100% preservative, 14 day): 2
